From PubChem BioAssay AID504842 (National Center for Advancing Translational Sciences (NCATS), 2011)
Screen size: about 330,000 compounds; about 100 (0.03%) were called active. This list was built around the results that the source calls inconclusive (neither active nor inactive); the mix of calls is not that of the screen. Calls follow the shape of the dose curve; as a rule, active = well fitted inhibition curve with a large enough effect; inconclusive = small, poorly fitted or top-dose-only effect; inactive = flat fitted curve, though single readings scatter. Potencies of inconclusive entries are doubtful fits and often do not repeat.

Tested on: Chaperonin Mm-Cpn (Methanococcus maripaludis)
Experiment: Inhibitors of TCP-1 ring complex (TRiC) of Methanococcus maripaludis (MmCpn): qHTS; also: nearly all actives have a fitted effect of over 80% in size;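 as to Potency: enzyme at 25 nM with ATP substrate at 10 µM during the reaction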
Conditions: purified Mm-Cpn ATPase, ADP Transcreener TR-FRET; activity, negative = inhibition: at the top concentration
How it was run: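 ATP (10 uM final) was added to archaeal chaperonin (25 nM final) after 10 min exposure to test compound at 37°C; after 30 min further incubation, ADP was detected by competitive TR-FRET.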
% is scaled to controls: 0 for no effect and ±100 for the full control effect; potency is read from the fitted curve at half-maximal effect.

Potency, inconclusive:
COC(=O)c1ccc(OCC(O)CN2CCOCC2)cc1 (stereo not given) 25.1 µM [inhibitor, single point]
NC(=S)Nc1cccc(-c2n[nH]c(=S)o2)c1 126 µM [inhibitor, partial curve, poor fit]
CCOc1ccc(NC(=O)CSc2nnc(C)n2CC2CCCO2)cc1 (stereo not given) 79.4 µM [inhibitor, single point]
COc1ccc(C(=O)Nc2ccc3c(c2)nc2n3CCSC2)cc1 6.31 µM [inhibitor, single point]
Cc1cccc(Oc2ncc(-c3ccc(Cl)cc3)cn2)c1C 20 µM [inhibitor, single point]
Cc1cccc(NC(=O)CN(C)S(=O)(=O)c2ccc(-c3ccc(=O)[nH]n3)s2)c1C 11.2 µM [inhibitor, single point]
CC[C@]12c3[nH]c4cc(-c5ccco5)ccc4c3CCN1C(=O)[C@@H](CC(=O)NCCC1=CCCCC1)C[C@@H]2C(=O)N1CCN(C(=O)c2ccco2)CC1 126 µM [inhibitor, single point]
COc1ccccc1C(=O)Nc1ccc(Br)c2cccnc12 447 µM [inhibitor, partial curve, poor fit]
CC1(C)CC(=O)C2=C(C1)OC(N)=C([N+](=O)[O-])C2c1cccs1 (stereo not given) 79.4 µM [inhibitor, single point]
Cc1c(Cl)c(C(=O)NNC(=S)NCc2ccco2)nn1C 8.91 µM [inhibitor, single point]
CC(C)CNC(=O)COC(=O)C1c2ccccc2Oc2ccccc21 20 µM [inhibitor, single point]
COc1cc(NC(=S)NCCSc2ccc(C)cc2)cc(OC)c1 15.8 µM [inhibitor, single point]
COc1cc(/C=N\Nc2nc3ccccc3[nH]2)cc(OC)c1OC 631 µM [inhibitor, partial curve, poor fit]
CC1(C)Cc2c(sc(NC(=O)C(=O)NCCCN3CCOCC3)c2C#N)CO1 20 µM [inhibitor, single point]
O=C1OCCN1C(=O)[C@H]1[C@H](c2ccc(Cl)cc2)C(c2ccccc2)=NN1c1ccccc1 141 µM [inhibitor, partial curve, poor fit]
Cc1ccc(S(=O)(=O)N/N=C\c2ccc([N+](=O)[O-])o2)cc1 112 µM [inhibitor, single point]
COc1ccc(C#Cc2c(-c3ccccc3)n(C)c3ccccc23)cc1 79.4 µM [inhibitor, partial curve, poor fit]
C[N+]1(CC(O)COc2ccccc2)CCN(C(=O)c2ccc([N+](=O)[O-])cc2)CC1 (stereo not given) 100 µM [inhibitor, partial curve, poor fit]
O=C(Cc1ccc([N+](=O)[O-])cc1)Nc1ccc2c(c1)CCC2 31.6 µM [inhibitor, single point]
COc1ccc(/C=C2\CCn3c2nc2cc(C(=O)O)ccc2c3=O)cc1O 56.2 µM [inhibitor, single point]
CCN(CC)c1ccc(-c2sc(Nc3ccccc3)n[n+]2-c2ccc(F)cc2)cc1 112 µM [inhibitor, partial curve, poor fit]
CSc1nc2ccc(NS(=O)(=O)c3ccc(Cl)s3)cc2s1 70.8 µM [inhibitor, single point]
COc1cccc(C(=O)NCc2ccc3c(c2)OCO3)c1 56.2 µM [inhibitor, single point]
Cc1cccc(Nc2ncnc3onc(-c4cccc(Cl)c4)c23)c1 79.4 µM [inhibitor, single point]
CN(CC(=O)Nc1ccc(F)c(F)c1F)C(=O)c1ccc(=O)[nH]c1 14.1 µM [inhibitor, single point]
COc1ccc(Nc2nc(-c3ccc4c(c3)NC(=O)CO4)cs2)cc1 100 µM [inhibitor, single point]
COCCNC(=O)C1CC(=O)N(C2CCCCC2)C1 (stereo not given) 100 µM [inhibitor, single point]
Cc1cc2nc(CS)[nH]c2cc1C 25.1 µM [inhibitor, single point]
Cc1nnc2ccc(-c3cccc(NS(=O)(=O)c4ccccc4[N+](=O)[O-])c3)nn12 282 µM [inhibitor, partial curve, poor fit]

activity, negative = inhibition, inactive:
CCc1nnc(NC(=O)c2ccc3c(c2)C(=O)N(C(C)(C)C)C3=O)s1 -0.408%
COc1ccc(CNc2ncnc3cc(Cl)ccc23)cc1OC 4.23%
CCCn1cnc2c(oc3ccccc32)c1=O 2.17%
Cc1nnc(NC(=O)c2ccc(S(=O)(=O)N(C)Cc3ccccc3)cc2)o1 -2.29%
CCCCOc1ccc(C(=O)N2CCC(C)CC2)cc1 -1.81%
COCCCn1c(-c2ccccc2)nc2ccccc2c1=O 1.72%
C/C(=N\Nc1cccc([N+](=O)[O-])c1)c1ccccc1O 2.41%
COc1ccccc1Oc1coc2cc(O)ccc2c1=O -0.788%
Cc1ncc(CN2CCCC(C(=O)Nc3ccc(-c4cscn4)cc3)C2)cn1 (stereo not given) -1.67%
O=C(COC(=O)C1CCCCC1)Nc1ccccc1OC(F)F 0.754%
O=C(N/N=C/c1ccc(OC(=O)c2cccs2)cc1)c1ccc(F)cc1 -2.66%
O=C1C=C(c2cc3ccccc3s2)C[C@@H](c2ccc(F)cc2)C1 -2.01%
CCOC(=O)CSc1nc2sc3c(c2c(=O)n1-c1ccccc1)CCN(C)C3 -1.07%
CCCCc1cc(=O)oc2cc(C)cc(OC(C)C(=O)NCC3CCC(C(=O)O)CC3)c12 (stereo not given) 0.289%
O=C(c1ccc(Cl)cc1Cl)N1CCN(c2ccccn2)CC1 1.39%
Cc1ccc(C(=O)CSc2nnc(-c3cccs3)n2C)o1 -3%

8 entries already listed, arranged by number of heavy atoms, ascending.
activity, negative = inhibition, inactive:
CCCn1cnc2c(oc3ccccc32)c1=O 2.17%
C/C(=N\Nc1cccc([N+](=O)[O-])c1)c1ccccc1O 2.41%
COc1ccccc1Oc1coc2cc(O)ccc2c1=O -0.788%
CCc1nnc(NC(=O)c2ccc3c(c2)C(=O)N(C(C)(C)C)C3=O)s1 -0.408%
O=C(N/N=C/c1ccc(OC(=O)c2cccs2)cc1)c1ccc(F)cc1 -2.66%
Cc1nnc(NC(=O)c2ccc(S(=O)(=O)N(C)Cc3ccccc3)cc2)o1 -2.29%
CCOC(=O)CSc1nc2sc3c(c2c(=O)n1-c1ccccc1)CCN(C)C3 -1.07%
CCCCc1cc(=O)oc2cc(C)cc(OC(C)C(=O)NCC3CCC(C(=O)O)CC3)c12 (stereo not given) 0.289%

Reprinted at random: two records from the list.
activity, negative = inhibition, inactive:
COCCCn1c(-c2ccccc2)nc2ccccc2c1=O 1.72%
COc1ccc(CNc2ncnc3cc(Cl)ccc23)cc1OC 4.23%
